## Percent effect of library compounds

Protein sequences, listed by entry. Tags and fused reporters are not part of them.
UniProt I6X8D2, whole entry: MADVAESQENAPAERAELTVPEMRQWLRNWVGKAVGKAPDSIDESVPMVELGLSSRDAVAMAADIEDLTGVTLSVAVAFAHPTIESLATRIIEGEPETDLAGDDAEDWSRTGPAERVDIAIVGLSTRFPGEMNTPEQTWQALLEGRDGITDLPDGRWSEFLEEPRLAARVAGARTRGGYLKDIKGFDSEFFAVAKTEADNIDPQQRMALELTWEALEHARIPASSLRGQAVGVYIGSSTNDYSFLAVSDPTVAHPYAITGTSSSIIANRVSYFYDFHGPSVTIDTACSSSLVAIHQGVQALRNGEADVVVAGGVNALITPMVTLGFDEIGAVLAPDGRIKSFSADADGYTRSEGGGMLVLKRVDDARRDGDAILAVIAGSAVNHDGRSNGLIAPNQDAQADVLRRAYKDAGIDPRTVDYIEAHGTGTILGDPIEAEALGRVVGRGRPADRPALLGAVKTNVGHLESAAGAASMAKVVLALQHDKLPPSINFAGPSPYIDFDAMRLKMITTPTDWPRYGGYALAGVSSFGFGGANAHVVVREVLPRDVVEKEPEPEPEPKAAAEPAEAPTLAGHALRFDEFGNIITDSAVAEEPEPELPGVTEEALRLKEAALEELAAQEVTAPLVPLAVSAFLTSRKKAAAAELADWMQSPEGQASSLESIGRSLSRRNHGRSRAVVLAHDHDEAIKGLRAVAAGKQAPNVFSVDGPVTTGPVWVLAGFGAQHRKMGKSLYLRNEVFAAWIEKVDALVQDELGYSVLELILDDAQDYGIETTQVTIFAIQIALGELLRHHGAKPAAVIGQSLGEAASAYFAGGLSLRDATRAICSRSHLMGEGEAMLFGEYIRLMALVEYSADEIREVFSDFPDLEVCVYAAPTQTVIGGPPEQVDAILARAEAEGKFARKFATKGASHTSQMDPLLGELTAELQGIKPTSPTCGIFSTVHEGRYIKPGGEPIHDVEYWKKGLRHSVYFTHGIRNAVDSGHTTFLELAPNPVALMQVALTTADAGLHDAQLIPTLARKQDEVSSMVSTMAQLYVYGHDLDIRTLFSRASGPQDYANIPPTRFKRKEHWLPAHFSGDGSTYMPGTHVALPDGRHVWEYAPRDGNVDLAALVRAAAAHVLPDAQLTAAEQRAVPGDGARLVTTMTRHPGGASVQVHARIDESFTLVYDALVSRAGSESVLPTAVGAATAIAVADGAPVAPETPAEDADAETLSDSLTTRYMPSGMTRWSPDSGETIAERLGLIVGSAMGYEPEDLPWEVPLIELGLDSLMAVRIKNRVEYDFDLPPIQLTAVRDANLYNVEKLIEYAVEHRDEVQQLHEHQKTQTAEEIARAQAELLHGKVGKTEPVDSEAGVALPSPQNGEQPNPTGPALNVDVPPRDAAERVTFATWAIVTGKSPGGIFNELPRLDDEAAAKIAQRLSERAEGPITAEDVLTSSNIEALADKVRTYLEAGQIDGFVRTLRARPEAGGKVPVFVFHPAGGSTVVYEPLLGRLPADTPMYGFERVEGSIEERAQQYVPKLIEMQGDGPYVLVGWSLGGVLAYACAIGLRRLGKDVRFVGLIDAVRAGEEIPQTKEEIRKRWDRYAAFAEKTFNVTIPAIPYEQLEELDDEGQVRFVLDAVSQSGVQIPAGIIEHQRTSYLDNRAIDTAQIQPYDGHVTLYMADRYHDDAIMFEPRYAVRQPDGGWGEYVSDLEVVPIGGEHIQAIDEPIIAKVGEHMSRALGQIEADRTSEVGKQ

Source: ChEMBL document CHEMBL3988442, “University of Dundee, Small-Polar-MMV Screening Library” (2021).

Results are given as percent effect.
How 0% and 100% were set is not recorded. Most values in the screen are low, and negative values occur.
This is an unselected part of the compounds tested.

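Enzyme assay of the thioesterase domain of polyketide synthase 13; the read-out is not stated. Target: Polyketide synthase Pks13, Mycobacterium tuberculosis (UniProt I6X8D2). Tested at 30 µM. Higher reads as stronger inhibition (inferred from which compounds were picked for retests). About 67,000 compounds were tested under these conditions; 0.46% (about 300) showed 50% or more at least once.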

compound,Percent Effect
CCN(CC)C1CCN(C(=O)Nc2cc(F)c(OC)c(F)c2)C1 (stereo not shown),5.571%
CCS(=O)(=O)N1CCC2(CCN(Cc3ccc(C)o3)C2)C1 (stereo not shown),3.139%
Cc1noc(C)c1CN1C[C@H](OCC2CCN(C)CC2)[C@H]2COC[C@H]21,-13.36%
CC(C)c1nccc([C@H]2C[C@@H]3CCN(Cc4ccoc4)C[C@H]3O2)n1,-10.25%
CN(CCc1nccs1)C(=O)CC1(O)CCCCC1,-9.572%
CCOc1cc(C(=O)N2CCCC2)cc2occc12,-6.268%
COC(=O)c1ccc(CNC(C)(C)c2ccccc2OC)o1,-11.9%
Cc1nc(C(=O)N2CCN(C(=O)C3CCC3)[C@@H]3CS(=O)(=O)C[C@@H]32)cs1,-10.15%
Cc1cccc(N2CCN(C(=O)CCCC(=O)N(C)C)C(C)C2)n1 (stereo not shown),-4.368%
COc1cccc(CC(C)NC(=O)NCCc2cccnc2)c1 (stereo not shown),0.2691%
COCc1noc(-c2nn(-c3ccc(F)cc3)c3c2CCC3)n1,-2.66%
CCC1COCCN1C(=O)NCc1nccn1Cc1ccccc1 (stereo not shown),-12.59%
CC(C)(C)[S+]([O-])CCNC(=O)c1cccc2ncccc12 (stereo not shown),-8.562%
OCc1cn(Cc2cccc(C(F)(F)F)c2)nn1,-5.197%
Cn1c(C(=O)N2CCC(C3OCCO3)CC2)c(Cl)c2ccccc21,-12.86%
O=C(c1cc(C2CC2)on1)N1CCCC(n2cncn2)C1 (stereo not shown),-9.823%
CC(O)CN(C)S(=O)(=O)c1ccc(C#N)cc1F (stereo not shown),9.873%
CCN(CC)CCNC(=O)C(C)OCC(F)(F)F (stereo not shown),-4.292%
COCCNc1nc(N2CCOCC2)nc2nccnc12,-6.375%
COc1cccc(-c2cc(NCc3cscn3)n(C)n2)c1,-31.76%
CCC(C)NC(=O)c1cccc(CNC(=O)CC(F)(F)F)c1 (stereo not shown),-12.2%
O=C(Cc1cccnc1)NC1CCCN(CCCc2ccccc2)C1 (stereo not shown),0.5122%
CCOC(C)c1noc(CN(C)C(=O)C2C(C)(C)C2(C)C)n1 (stereo not shown),-9.27%
COc1ccc(F)cc1C(=O)N1C[C@H]2CC[C@@H]1CN(c1ncccn1)C2,-6.952%
Cc1nc(CN2CCC(c3cc(N4CCCC4)ncn3)CC2)cs1,1.784%
COc1ccccc1OC1CN(C(=O)Cc2c(C)nc3ccccn23)C1,-8.587%
COCC(=O)NC(CC(C)C)c1nc2cccnc2n1C (stereo not shown),-15.47%
OCCn1ncc2c1CN(CC1CCOc3ccccc3C1)C2 (stereo not shown),-28.85%
NC(=O)C1CCCN(S(=O)(=O)c2cnn(-c3ccccc3)c2)C1 (stereo not shown),14.93%
CN(CCc1ccccc1)Cc1c(C2CCNCC2)[nH]c2ncccc12,-0.9626%
CCc1nc(CN2CCCN(c3nccs3)CC2)no1,10.29%
CN(C)C(=O)CN1CCC2(CC1)CC(=O)c1c(ccc3ccccc13)O2,12.7%
COc1ccnc(NC(Cc2ccccc2)C(=O)N(C)C)n1 (stereo not shown),-9.994%
Cc1cc(C)n(CC2CN(c3ncnc4[nH]ccc34)CCO2)n1 (stereo not shown),-5.948%
O=C(c1ccco1)N1C[C@H]2CCCN(Cc3ccoc3)[C@H]2C1,0.551%
Cc1cc(C2CCCN2C(=O)Nc2cn[nH]c2)on1 (stereo not shown),-5.852%
COC(=O)N1CCN(Cc2ccccc2Cl)CC1,-18.66%
CC1=Nc2c(c(=O)[nH]n2C(C)C)C(c2cccc(OC(F)F)c2)S1 (stereo not shown),-40.93%
CC(=O)N1[C@H](CN(C)C)C[C@@H]2CN(C(=O)c3ccno3)CC[C@@H]21,-8.067%
COCC(O)CNC(=O)c1cnc(-c2ccccc2)nc1O (stereo not shown),-16.64%
CCCS(=O)(=O)N1C[C@@H]2CC[C@H](C1)N(Cc1cscn1)C2=O,-2.184%
Cc1cc(C(F)(F)F)n2nc(C3CCN(S(=O)(=O)N(C)C)CC3)cc2n1,-14.38%
CC(C)CC(O)C1CCN(Cc2cnc(-c3cccs3)nc2)CC1 (stereo not shown),32.13%
CCCNC(=O)CN1CCN(c2nc(CC)ns2)CC1,-31.35%
Cc1cc(CNCc2c(C)n(CC(C)C)c3ccccc23)[nH]n1,3.545%
Cc1nnc2n1CCN(C(=O)c1cnc3c(cnn3CC(C)C)c1)C2,-12.86%
CS(=O)(=O)N1CC2(CCCN2Cc2ccc(Cl)cc2)Cc2ccccc21 (stereo not shown),24.75%
O=c1c2ccccc2nc2n1CCC2O (stereo not shown),-27.2%
O=c1ccc2c(n1CC1CC1)CCC(NS(=O)(=O)C1CC1)C2 (stereo not shown),-38.88%

3 of the entries, repeated:

| compound | Percent Effect |
|---|---|
| `COc1cccc(-c2cc(NCc3cscn3)n(C)n2)c1` | -31.76% |
| `CCOC(C)c1noc(CN(C)C(=O)C2C(C)(C)C2(C)C)n1` (stereo not shown) | -9.27% |
| `OCCn1ncc2c1CN(CC1CCOc3ccccc3C1)C2` (stereo not shown) | -28.85% |